Experimental data from patent US7160700B2, “Glycosyltransferase genes” (International Flower Developments Proprietary Limited, priority 2000, dated 2007).
Some entries share one result that the patent states for a list of compounds.

Biological target: T1, 3′GT (Gentiana triflora, UniProt Q8H0F2)
T1 construct: the region from the initiation methionine to poly A of pG3′GT7 was inserted in the NcoI/KpnI site of E. coli expression vector pQE61; made in house; host or cells: Escherichia coli JM105 (vector pQE61, plasmid pG3′Q1)
T1 sequence (Q8H0F2 1-482): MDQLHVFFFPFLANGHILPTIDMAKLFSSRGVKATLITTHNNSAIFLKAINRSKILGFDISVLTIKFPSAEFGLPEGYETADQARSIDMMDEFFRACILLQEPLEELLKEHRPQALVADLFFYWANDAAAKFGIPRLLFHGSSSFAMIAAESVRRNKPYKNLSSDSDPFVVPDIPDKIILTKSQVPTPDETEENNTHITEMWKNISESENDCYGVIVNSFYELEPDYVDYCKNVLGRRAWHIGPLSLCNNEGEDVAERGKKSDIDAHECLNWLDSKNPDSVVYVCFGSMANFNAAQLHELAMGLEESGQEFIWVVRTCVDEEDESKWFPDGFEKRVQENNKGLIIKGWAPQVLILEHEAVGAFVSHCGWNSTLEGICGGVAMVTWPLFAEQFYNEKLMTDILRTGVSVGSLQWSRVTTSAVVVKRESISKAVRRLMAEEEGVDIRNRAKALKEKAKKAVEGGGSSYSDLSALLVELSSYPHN
Test: Analysis of substrate specificity of purified 3′GT expressed in Escherichia coli (glucose transfer from UDP-glucose, HPLC)
Type: biochemical, gentian
Conditions: compound used as substrate; product considered to be the substrate with a glycosyl group added at the 3′-position
Description: 20 μl of the crude enzyme extract solution, 10 μl of 0.5M potassium phosphate (pH 8.5), 10 μl of 5 mM UDP-glucose, 10 μl of delphinidin 3,5-diglucoside (1.5 mg/ml) were mixed and maintained at 30° C. for 10 minutes. Then, following the procedure of Fujiwara et al. (Fujiwara et al. Plant J. (1998)), reaction was terminated, and the reaction product was analyzed using high performance liquid chromatography (HPLC). As a result, it was determined that gentian flower petals contain an enzyme having activity to transfer a glycosyl group to the 3′-position of an anthocyanin.
Using the PCR method, an NcoI site was introduced so as to coincide with the initiation methionine codon of pG3′GT7, and the region from the initiation methionine to poly A of pG3′GT7 was inserted in the NcoI/KpnI site of E. coli expression vector pQE61 (QIAGEN). The obtained E. coli expression vector was denoted by pG3′Q1. pG3′Q1 was introduced into the Escherichia coli JM105 strain, and after preculturing overnight at 37° C., a part of the precultured medium was innoculated into 8 L of a main culture medium, and was cultured at 27° C. until OD600=0.6. To induce expression of the 3′GT gene, IPTG was added so as to reach a final concentration of 0.4 mM, and was cultured overnight at 27° C. […]
Using the purified sample of the 3′GT portion obtained in Example 6, the substrate-specificity of the 3′GT was analyzed. […]

Molecule | trace amount of products observed [%]
Oc1cc(O)c2cc(O)c(-c3cc(O)c(O)c(O)c3)[o+]c2c1 [delphinidin] | ≤ 1
delphinidin 3-diglucoside | ≤ 1
